Results deposited as PubChem BioAssay AID602196 (INSERM, 2012)
Assay: 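Modifiers of cisplatin sensitivity in A549 cells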. System: human A549 lung cancer cells. Knock-down reagent: siRNA pair against human genes. Time to read-out: 48 h transfection before cisplatin; time from cisplatin to read-out not stated. Treatment: cisplatin at a dose killing half of control-siRNA cells; exact dose and duration not given. Measured: 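Shift in cisplatin death relative to control siRNA, from -50 (all cells die) to +50 (no cells die); siRNAs harmful on their own scored 0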. Direction: two-siRNA summed score (-2 to +2): higher = both siRNAs protect from cisplatin killing; -2 means both sensitise; mean protection from cisplatin (shift in death) and protection from cisplatin (shift in death), siRNA C and protection from cisplatin (shift in death), siRNA D: higher = protection from cisplatin killing. Rule for the call: 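siRNAs harmful alone (LDH or WST-1) get 0; others get +1 for less and -1 for more cisplatin killing; genes are active when the two siRNAs give the same sign, summing to ±2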. Calls: active = both siRNAs shift cisplatin killing the same way; inactive = no consistent shift, or siRNA harmful alone.
In all, the deposit lists about 23,000 reagents; shown is a part drawn at random. 455 of all reagents (2%) were called active. 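Active includes both protection and sensitisation; some change values fall well beyond the stated -50 to +50 range.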 A number with no mark means an inactive call. Reagent sequences are not shown. The record does not give: the amount of reagent.

| gene | two-siRNA summed score (-2 to +2) | mean protection from cisplatin (shift in death) (%) | protection from cisplatin (shift in death), siRNA C (%) | protection from cisplatin (shift in death), siRNA D (%) |
| --- | --- | --- | --- | --- |
| IL27 (GeneID 246778) | 0 | 23.5 | 40 | 6.9 |
| FAU (GeneID 2197) | 0 | 10.2 | -1.1 | 21.5 |
| CRACR2B (GeneID 283229) | 0 | 13.9 | 7.5 | 20.4 |
| CRB2 (GeneID 286204) | 0 | -2.7 | -6.2 | 0.8 |
| GFM1 (GeneID 85476) | 0 | 10.2 | 15.6 | 4.7 |
| TES (GeneID 26136) | 1 | 17.5 | 19.6 | 15.5 |
| TDRD10 (GeneID 126668) | 0 | 1.3 | 0.4 | 2.2 |
| LOC440142 | 0 | 8.6 | 14 | 3.2 |
| ZNF219 (GeneID 51222) | 0 | 13.1 | 16.2 | 9.9 |
| CHD2 (GeneID 1106) | 1 | 18.1 | 3.7 | 32.6 |
| SZRD1 (GeneID 26099) | 0 | -2.3 | -1.7 | -2.8 |
| FLJ46875 (GeneID 440918) | 1 | 19.7 | 21 | 18.4 |
| SLC51B (GeneID 123264) | 0 | -3.2 | -2.8 | -3.5 |
| DCTN2 (GeneID 10540) | 1 | 11.6 | 14.2 | 8.9 |
| MARVELD2 (GeneID 153562) | 0 | 5.9 | -2.2 | 14.1 |
| APLP1 (GeneID 333) | 0 | 5.7 | -2.7 | 14 |
| PPIAP33 (GeneID 392285) | 0 | 1.9 | 3.7 | 0.2 |
| LOC388295 | 0 | 19.5 | -6.8 | 45.8 |
| MPV17L2 (GeneID 84769) | 0 | -2.1 | -4.2 | 0 |
| PPP1R15B (GeneID 84919) | 0 | 1.5 | -6.4 | 9.4 |
| STARD3NL (GeneID 83930) | 0 | 10.9 | 32.2 | -10.4 |
| CSNK2A1 (GeneID 1457) | 0 | 5.8 | 9.4 | 2.3 |
| LOC440683 (retired record) (GeneID 440683) | 1 | 5.6 | -5.9 | 17 |
| GTF3C6 (GeneID 112495) | 0 | -7.8 | -10.1 | -5.4 |
| LOC441219 | 0 | 18.6 | 12.7 | 24.5 |
| PTBP1 (GeneID 5725) | 0 | -3.8 | -7.7 | 0.2 |
| ALDOC (GeneID 230) | 0 | 2.4 | -4.7 | 9.5 |
| PRPF31 (GeneID 26121) | 0 | -23 | -11.1 | -34.8 |
| OTULINL (GeneID 54491) | 0 | -4.3 | -2.7 | -5.8 |
| EPHA8 (GeneID 2046) | 1 | -7.9 | 21 | -36.8 |
| PTGES2 (GeneID 80142) | 0 | -0.6 | 2.2 | -3.4 |
| CDY2A (GeneID 9426) | 0 | 13.9 | 18.5 | 9.2 |
| P2RX1 (GeneID 5023) | 0 | 5.2 | 21.6 | -11.3 |
| LOC400942 | 0 | 13.1 | 16.9 | 9.2 |
| CTNNBL1 (GeneID 56259) | 0 | -1 | 3.4 | -5.5 |
| LOC343705 | 0 | -4.8 | -5.4 | -4.1 |
| LINC00664 (GeneID 400680) | 0 | 9.3 | 14.1 | 4.5 |
| SLC48A1 (GeneID 55652) | 0 | -6.2 | -18.5 | 6.1 |
| RXFP3 (GeneID 51289) | -1 | -16.6 | -30.8 | -2.3 |

Records listed so far whose target name starts with M or m (2):
| gene | two-siRNA summed score (-2 to +2) | mean protection from cisplatin (shift in death) (%) | protection from cisplatin (shift in death), siRNA C (%) | protection from cisplatin (shift in death), siRNA D (%) |
| --- | --- | --- | --- | --- |
| MARVELD2 (GeneID 153562) | 0 | 5.9 | -2.2 | 14.1 |
| MPV17L2 (GeneID 84769) | 0 | -2.1 | -4.2 | 0 |
